From article PMC12204625
Positions count from the first letter of the chain named. No constants are given. Whether binding was seen depends on the method and setting. In cells and extracts the contact can be indirect. Tags and fused reporters may be left off the sequences shown.

Experiments:
[1] = molecular target: T1, IFI27-V82A-HA variant (human) (UniProt P40305); experiment: co-IP; HEK-293T co-transfected with IFI27-HA (WT or variants) and PACT-FLAG, poly(I:C) 3000 ng/ml for 24 h; anti-HA affinity resin overnight at 4 °C; Western blot with anti-FLAG and anti-HA
T1 sequence: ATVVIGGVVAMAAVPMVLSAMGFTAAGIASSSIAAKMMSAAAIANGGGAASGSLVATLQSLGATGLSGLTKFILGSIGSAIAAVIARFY

[2] = molecular target: T2, IFI27-S63L-HA variant (human) (UniProt P40305); experiment: as above
T2 sequence: T1 sequence with S30L, A49V

B1: PKR-activating protein (PACT) fused to a C-terminal FLAG tag (protein, UniProt O75569-1 1-313)
chain: MSQSRHRAEAPPLEREDSGTFSLGKMITAKPGKTPIQVLHEYGMKTKNIPVYECERSDVQIHVPTFTFRVTVGDITCTGEGTSKKLAKHRAAEAAINILKANASICFAVPDPLMPDPSKQPKNQLNPIGSLQELAIHHGWRLPEYTLSQEGGPAHKREYTTICRLESFMETGKGASKKQAKRNAAEKFLAKFSNISPENHISLTNVVGHSLGCTWHSLRNSPGEKINLLKRSLLSIPNTDYIQLLSEIAKEQGFNITYLDIDELSANGQYQCLAELSTSPITVCHGSGISCGNAQSDAAHNALQYLKIIAERK
- binding [1]: no binding
- binding [2]: no binding
